Measured values published in paper PMC5422739.
No constants are given. Whether binding was seen depends on the method and setting. For some assays here: Binding can be weak; no strength is given.

Legend:
[1] = target: T1, HTE20 (20th exon of human tropoelastin) (human) (UniProt P15502); test: ELISA; HTE17-20, HTE20, HTE20N, HTE20C or BSA coated (1 μM/well); GST tagged LigB4 or LigB12 titrated 0 to 10 μM, 1 h at 37°C; HRP anti-GST; KD from a saturation fit of OD630; both purified
T1 sequence: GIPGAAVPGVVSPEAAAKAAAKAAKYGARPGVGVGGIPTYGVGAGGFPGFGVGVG

[2] = target: T2, HTE20C (the last 28 residues of HTE20, amino acids 385–412 of HTE) (human) (UniProt P15502); test: as above
T2 sequence: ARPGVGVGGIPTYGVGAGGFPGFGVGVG

**Q.** For “GST tagged LigB4 (amino acids 307–403 in LigB) (L. interrogans serovar Pomona) (domain or fragment)”, which binding [1] is on record?
**A.** binds

**Q.** And the binding [2]?
**A.** no binding (tested: 10 μM)
